Data from PubChem BioAssay AID1794845 (National Center for Advancing Translational Sciences (NCATS), 2023).
Out of some 6,900 compounds screened, fewer than 10 were called active. Calls come from the whole dose curve; as a rule, active = well fitted curve in the direction sought with a large enough effect; inconclusive = small, poorly fitted or top-dose-only effect, or another doubt; inactive = no such curve, though single readings can be large or run the other way. The list shows a part of the results.

Amino acid sequences for entries named in this document (tags omitted). A change or cut given only in a name is not applied to a line headed by its entry.
UniProt C7C422: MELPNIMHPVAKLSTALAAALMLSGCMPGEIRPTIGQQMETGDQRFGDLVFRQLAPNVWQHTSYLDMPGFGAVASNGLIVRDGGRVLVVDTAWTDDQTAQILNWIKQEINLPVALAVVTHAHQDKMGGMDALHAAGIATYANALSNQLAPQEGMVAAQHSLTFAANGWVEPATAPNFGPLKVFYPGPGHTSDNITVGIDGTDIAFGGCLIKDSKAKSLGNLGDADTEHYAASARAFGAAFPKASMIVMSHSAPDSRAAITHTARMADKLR

The compounds below were run against Metallo-beta-lactamase type 2 (Klebsiella pneumoniae) (UniProt C7C422) (assay: qHTS to identify inhibitors of the New Delhi Metallo-beta-lactamase (NDM): primary screen against the NCATS Gemini Collection). Conditions: NDM-1 enzyme, meropenem hydrolysis, absorbance 300 nm; at 38.4 µM (top of the series) unless noted.
Outline: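 NDM-1 at 2 nM final in 50 mM HEPES pH 7.0, 1 uM ZnSO4, 0.01% Tween20, preincubated >30 min with compound. Meropenem 50 uM final added; absorbance at 300 nm after 30 min.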
Note: % of control where 0% means no effect.

Activity % (negative = inhibition), inactive:
O=C(C1CCc2nnc(-c3ccc(Cl)cc3Cl)n21)N1CCCC1 (configuration not stated) -0.945%
CC(C)c1noc(-c2cn(C3CCCN(C(=O)c4ccc[nH]4)C3)nn2)n1 (configuration not stated) -6.31%
CCC1C(=O)N(C)CCN1C(=O)c1coc(COc2ccc3c(c2)OCO3)n1 (configuration not stated) 2.22%
O=c1cc(-c2ccccn2)oc2c(Nc3cccnc3)nccc12 7.61% [at 57.5 µM]
Cc1nc2cccnc2n1CC1CCCN(S(=O)(=O)c2ccc3c(c2)OCCO3)C1 (configuration not stated) 2.02%
O=C(NCC1CCOCC1)C1COc2ccccc2O1 (configuration not stated) -1.26%
Cc1cc(NC(=O)C2CCN(c3cc(C(F)(F)F)ncn3)CC2)ccc1Br 12.9%
CCn1ccc(C(=O)N2CCC3(CC2)CC(N(C(=O)c2ccccc2)C2CC2)CCO3)n1 (configuration not stated) 12.3%
Cc1nn(C)c(C)c1CCC(=O)NC1CCc2nnc(C3CC3)n2CC1 (configuration not stated) 0.977%
COCC(=O)N1CCN(Cc2ccccc2-c2ccc(C)c(Cl)c2)CC1 -9.24%
CC(C)(CN1CCC(Cc2ccc(C(=O)O)cc2)C1)N1CCOCC1 (configuration not stated) 8.7%
COc1cccc(CNC(=O)C2(N3C[C@@H](C)O[C@@H](C)C3)Cc3ccccc3C2)c1 3.16%
O=C(NCCc1ccccc1)c1nc2sccn2c1-c1cccnc1 3.21%
NC(=O)[C@@H](Cc1ccccc1)NC(=O)C1=C[C@@H](NC(=O)CS(=O)(=O)c2ccccc2)[C@@H](O)[C@H](O)C1 15.5%
Cc1noc(-c2cccc(OC3CN(C(=O)c4ccco4)C3)c2)n1 31.6%
O=CN1CCCC(n2cnc3cccnc32)C1 (configuration not stated) 1.83% [at 77.1 µM]
CC1CCN(CC2CCCN(C(=O)COc3ccc(F)cc3)CC2)CC1 (configuration not stated) -3.41%
CC(=O)N1CCc2[nH]cnc2C12CCN(C(=O)CCn1nnnc1C)CC2 24.6%
c1nc(N2CCOCC2)c2c3c(sc2n1)CN(CC1CCCCC1)CC3 4.2%
CN1CCCCCCN(C(=O)NCc2ccccc2)CCC1=O 0.349%
CCc1ccc(N2CC(c3noc(C4(c5ccccc5)CC4)n3)CC2=O)cc1 (configuration not stated) -1.39%
Cc1noc(C2CCCCN2C(=O)c2ccoc2)n1 (configuration not stated) 0.293%
O=C(C[C@@H]1CCNC[C@@H]1Cc1cc(CN2CCOCC2)on1)N1CCN(c2ccc(F)cc2)CC1 2.8%
CCc1noc(-c2ccn3c(CNC(=O)c4ccc(C)c(F)c4)nnc3c2)n1 16.2%
Cc1cc(CC(=O)N2C[C@@H](COCC3CC3)[C@H](c3ccncc3)C2)on1 -1.54%
CN(c1ccccc1)c1cc(=O)c2ccnc(-c3cncnc3)c2o1 12.7% [at 57.5 µM]
O=C(c1ccnc(-c2ccncc2)c1)N1CCCC1 -0.667%
CC(=O)N1CCN(C(=O)c2cn3cc(-c4ccc(F)cc4)sc3n2)CC1 16.2%
COCCNC(=O)c1ccc(-c2ccc(N3CCCCC3)nc2)cc1 4.91%
CCC(C)C(=O)N1CCC2(CCc3nn(Cc4ccccc4)c(=O)n3CC2)CC1 (configuration not stated) -3.02%
CN(C(=O)Cc1c[nH]c2ccccc12)C1CCc2nn(C)c(=O)n2CC1 (configuration not stated) 30.5%
Cc1nn(CCC#N)c(C)c1[C@@H]1C=C[C@@H](NCc2ccc(C(C)C)cc2)C1 -0.892% [at 57.5 µM]
COc1ccc(Nc2cnc3ccc(-c4ccccc4)nn23)cc1 12.3% [at 57.5 µM]
CN1C[C@@H](NC(=O)NC2CCCCC2)C[C@H]1c1nc(Cc2ccccc2)no1 -1.03% [at 57.5 µM]
NC(=O)CO[C@@H]1CO[C@H]2[C@@H]1OC[C@@H]2NC(=O)NCc1ccccc1 1.19% [at 57.5 µM]
COc1ccc(NC(=O)[C@@H]2C[C@H](c3ccc(F)cc3)N(Cc3csc(C)n3)C2)cn1 5.33% [at 57.5 µM]
Cc1cc(CN(C)C2CCCc3ccccc32)no1 (configuration not stated) 68.4% [at 57.5 µM]
CN1Cc2ncnc(N3CCOCC3)c2CN(c2cccnc2)C1=O 2.11% [at 57.5 µM]
O=C(c1ccccc1-c1ccccc1)N1CCCn2cncc2C1 -6.16%
CCCS(=O)(=O)NCC1CN(CC2CC2)CC12CCCCC2 (configuration not stated) -9.24%
c1ccc(CC2=NOC3(CCN(Cc4ccccc4)C3)C2)cc1 (configuration not stated) 5.44% [at 57.5 µM]
COc1ccc2c(c1)OCC(CNC(=O)c1ccc(-c3nnn(C)n3)cc1)C2 (configuration not stated) 0.329%
O=C(c1nnc(CN2CCN(c3ccccn3)CC2)n1-c1cccnc1)N1CCC[C@@H]1c1cccc(F)c1 -8.91%
O=C(NCCc1cccs1)C1CCN(c2cc(C(F)(F)F)ncn2)CC1 1.3%
C=CCNc1nc(CC)nc2c1CCN(C(=O)c1cn(C)nc1C)CC2 15.5%
COc1ccc(C(=O)N[C@@H]2CN(c3ncccn3)C[C@H]2CN(C)C)cn1 4.93%
CC(=O)N1CCC(C2CCN(C(=O)c3nn(C)c4ccccc34)C2)CC1 (configuration not stated) 14.6%
CC[C@@]1(O)CCN(C(=O)CCc2nc(-c3ccncc3)no2)C[C@H]1O 10.4%
Cc1noc([C@@H]2CN(C(=O)CCc3nc4ccccc4s3)C[C@H]2C(N)=O)n1 -2.27%
Cc1c(C(=O)N[C@H](c2cnn(C)c2)C2CC(O)C2)sc2nc[nH]c(=O)c12 (some centres not stated) 2.15%
COc1cccc(CN2CC(C(=O)NCc3cc4ccccc4[nH]3)CCC2=O)c1 (configuration not stated) 3.35%
O=C(C1CC1)N1CCCC2(CN[S+](=O)([O-])c3cccnc3O2)C1 (configuration not stated) 0.47%
COCC(=O)NC[C@H]1O[C@@H](CO)[C@@H](O)[C@H]1N1CCN(c2cccc(C(F)(F)F)c2)CC1 -1.52%
c1ccc(COc2ccc(CN3CCN(C4CCNC4)CC3)cc2)cc1 (configuration not stated) 2.98%
CNC(=O)[C@@H](CC(C)C)N1CCC[C@H]1C(=O)N[C@@H](CO)CC(C)C 3.21% [at 57.5 µM]
CCO[C@H]1CN(C2CCN(CCc3ccccc3)CC2)C[C@@H]1O 13.8%
O=C([C@@H]1CNC[C@H](C(=O)N2CCC(c3ccncn3)CC2)C1)N1CCCC1 0.848%
O=C1NCc2ccccc2CC12CCN(Cc1ccc(F)cc1)CC2 17.6%
COc1ccccc1CCN1CCCC(CN(C)C(=O)Nc2ccccc2)C1 (configuration not stated) -8.54%
CC(C)c1ccc(-n2cc(CN3CCN(C(=O)N(C)C)CC3)cn2)cc1 9.6%
CCCn1cc(C(=O)N2CC(=O)N(c3cccc(C)c3)CC2C)c(C)n1 (configuration not stated) 2.88%
Cn1nccc1C(=O)NC1CCCN(c2cc(N3CCCC3)ncn2)C1 (configuration not stated) 44.8%
C=CCOc1ccc(-c2nnc(CCC(=O)NCCOc3ccccc3)c(=O)[nH]2)cc1 16.2%
COCCS(=O)(=O)c1ncc(CN(C)C(C)c2ccon2)n1Cc1ccccc1 (configuration not stated) -4.26%
O=C(c1ccc(C(F)(F)F)cc1)N1CCC2(COc3ccncc3[S+](=O)([O-])N2)C1 (configuration not stated) 0.0293%
CCOc1ccccc1CN1C[C@@H](CO)[C@H](NC(=O)c2cccnc2)C1 -2.77%
Cc1nn(CC(=O)N2CCC3(CCCN(C)CC3)CC2)c(=O)c2ccccc12 -0.775%
CC(C(=O)NCCc1ccccn1)C1CCOCC1 (configuration not stated) 8.17%
CC(=O)NCC(=O)N1c2ccccc2CC1c1nc(C(C)C)no1 (configuration not stated) -22.3%
CC(C)(C)NC(=O)N1CCCC(c2nc(CCOCC3CC3)no2)C1 (configuration not stated) -0.186%
O=C(c1nc(-c2ccc(Cl)cc2Cl)c2cnccn12)N1CCOCC1 -3.76%
COC(=O)COc1ccc(CC2C(=O)NCCc3ccccc3OCC(=O)N2C)cc1 (configuration not stated) -1.66%
Cc1ccc(NC2=N[C@H]3[C@@H](O)[C@H](O)C[C@H](C(=O)NCc4cccnc4)[C@H]3S2)cc1 6.31% [at 57.5 µM]
COc1cccc(CN2CCCC(O)(CNC3CCCCCCC3)C2=O)c1 (configuration not stated) 6.63%
CC(C)c1cc(C(=O)N2CC[C@H](CO)[C@H](O)C2)cs1 6.71%
Cc1cc(C(=O)NC2CC(C)(C)Cc3nc(N4CCOCC4)ncc32)nn1C (configuration not stated) 0.957%
CC(C)CCCC1CN(C(=O)CN2CCCC2=O)CCO1 (configuration not stated) 3.05%
Cc1noc([C@H]2CCN(S(C)(=O)=O)C[C@H]2NC(=O)C2CC2)n1 -0.74%
O=C1CC2(CCN(CC3CCOCC3)C2)Nc2ccccc2N1 (configuration not stated) 0.0357%
Fc1cc(F)cc(Cc2nc3nccc(-c4cccnc4)n3n2)c1 5.04%
CCn1ccc(C(=O)N2CCCC(CO)CCNC(=O)CC2)n1 (configuration not stated) 23.3%
COc1cc(OC)cc(C(=O)N[C@@H]2COCC[C@@H]2Oc2cccc(F)c2)c1 -1.29%
CC(C)(C)c1nc(C(=O)NCc2cccnc2)n2ccccc12 21.7%
CCC1(O)CCC12CCN(C(=O)c1ccco1)CC2 (configuration not stated) 1.5%
O=C(c1cnc(N2CCOCC2)nc1)N1CCn2nc(C(O)C3CC3)cc2C1 (configuration not stated) 1.78%
CN(Cc1cc(C2CC2)n[nH]1)C(=O)C(c1ccc(F)cc1)N(C)C (configuration not stated) 6.93%
CN1CC2(CCCN(C3CCN(C(=O)c4cnccn4)CC3)C2)OC1=O (configuration not stated) 0.1%

A run of entries taken from the entries so far, for reference:
Activity % (negative = inhibition), inactive:
CC(C)(C)c1nc(C(=O)NCc2cccnc2)n2ccccc12 21.7%
CCC1(O)CCC12CCN(C(=O)c1ccco1)CC2 (configuration not stated) 1.5%
O=C(c1cnc(N2CCOCC2)nc1)N1CCn2nc(C(O)C3CC3)cc2C1 (configuration not stated) 1.78%

Four compounds drawn at random from the list so far, as already listed:
Activity % (negative = inhibition), inactive:
CC(C(=O)NCCc1ccccn1)C1CCOCC1 (configuration not stated) 8.17%
C=CCOc1ccc(-c2nnc(CCC(=O)NCCOc3ccccc3)c(=O)[nH]2)cc1 16.2%
Cc1nn(CC(=O)N2CCC3(CCCN(C)CC3)CC2)c(=O)c2ccccc12 -0.775%
CCc1ccc(N2CC(c3noc(C4(c5ccccc5)CC4)n3)CC2=O)cc1 (configuration not stated) -1.39%
